Measurements from PMC9545238.

Sequences of proteins named here, by UniProt entry; tags and fusion partners are left off. A change or cut given only in a name is not applied to a line headed by its entry.
UniProt P0CV73: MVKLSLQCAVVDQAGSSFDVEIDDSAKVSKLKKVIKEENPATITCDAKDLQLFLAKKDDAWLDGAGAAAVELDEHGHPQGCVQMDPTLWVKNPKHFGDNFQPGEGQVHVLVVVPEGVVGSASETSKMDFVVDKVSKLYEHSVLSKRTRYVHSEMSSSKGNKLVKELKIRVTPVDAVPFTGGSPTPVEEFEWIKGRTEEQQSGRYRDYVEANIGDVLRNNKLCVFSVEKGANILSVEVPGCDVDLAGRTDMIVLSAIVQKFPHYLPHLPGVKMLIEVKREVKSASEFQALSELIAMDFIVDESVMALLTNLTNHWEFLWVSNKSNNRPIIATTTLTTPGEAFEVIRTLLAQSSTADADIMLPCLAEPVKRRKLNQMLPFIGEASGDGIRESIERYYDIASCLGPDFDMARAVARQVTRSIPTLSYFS

Key:
[1] = target: Myzus persicae effector Mp64, yeast two-hybrid bait (Myzus persicae); assay: two-hybrid; independent co-transformation of effector bait with full-length SIZ1 prey in yeast, reporter assays
[2] = target: GFP-Mp64 (Myzus persicae); assay: co-IP; N-terminal GFP-tagged effectors and C-terminal 10xMyc-tagged SIZ1 co-expressed in N. benthamiana leaves (48 h); extract in GTEN buffer (10% glycerol, 25 mM Tris-HCl pH 7.5, 150 mM NaCl, 1 mM EDTA) with 0.1% NP-40 and 10 mM DTT; GFP-Trap-M magnetic beads; blots with GFP and cMyc antibodies
[3] = target: GFP-CRN83_152 (Phytophthora capsici) (UniProt P0CV73); assay: as above

Binder | binding [1] | binding [2] | binding [3]
full-length AtSIZ1 (Arabidopsis thaliana SIZ1), yeast two-hybrid prey (protein, UniProt Q680Q4 1-884) MDLEANCKEKLSYFRIKELKDVLTQLGLSKQGKKQELVDRILTLLSDEQAARLLSKKNTVAKEAVAKLVDDTYRKMQVSGASDLASKGQVSSDTSNLKVKGEPEDPFQPEIKVRCVCGNSLETDSMIQCEDPRCHVWQHVGCVILPDKPMDGNPPLPESFYCEICRLTRADPFWVTVAHPLSPVRLTATTIPNDGASTMQSVERTFQITRADKDLLAKPEYDVQAWCMLLNDKVLFRMQWPQYADLQVNGVPVRAINRPGGQLLGVNGRDDGPIITSCIRDGVNRISLSGGDVRIFCFGVRLVKRRTLQQVLNLIPEEGKGETFEDALARVRRCIGGGGGDDNADSDSDIEVVADFFGVNLRCPMSGSRIKVAGRFLPCVHMGCFDLDVFVELNQRSRKWQCPICLKNYSVEHVIVDPYFNRITSKMKHCDEEVTEIEVKPDGSWRVKFKRESERRELGELSQWHAPDGSLCPSAVDIKRKMEMLPVKQEGYSDGPAPLKLGIRKNRNGIWEVSKPNTNGLSSSNRQEKVGYQEKNIIPMSSSATGSGRDGDDASVNQDAIGTFDFVANGMELDSISMNVDSGYNFPDRNQSGEGGNNEVIVLSDSDDENDLVITPGPAYSGCQTDGGLTFPLNPPGIINSYNEDPHSIAGGSSGLGLFNDDDEFDTPLWSFPSETPEAPGFQLFRSDADVSGGLVGLHHHSPLNCSPEINGGYTMAPETSMASVPVVPGSTGRSEANDGLVDNPLAFGRDDPSLQIFLPTKPDASAQSGFKNQADMSNGLRSEDWISLRLGDSASGNHGDPATTNGINSSHQMSTREGSMDTTTETASLLLGMNDSRQDKAKKQRSDNPFSFPRQKRSNNEQDHQTRHRSLNKICIILCAGKN | binds |  | 
AtSIZ1-cMyc(10x) (protein, UniProt Q680Q4 1-884) MDLEANCKEKLSYFRIKELKDVLTQLGLSKQGKKQELVDRILTLLSDEQAARLLSKKNTVAKEAVAKLVDDTYRKMQVSGASDLASKGQVSSDTSNLKVKGEPEDPFQPEIKVRCVCGNSLETDSMIQCEDPRCHVWQHVGCVILPDKPMDGNPPLPESFYCEICRLTRADPFWVTVAHPLSPVRLTATTIPNDGASTMQSVERTFQITRADKDLLAKPEYDVQAWCMLLNDKVLFRMQWPQYADLQVNGVPVRAINRPGGQLLGVNGRDDGPIITSCIRDGVNRISLSGGDVRIFCFGVRLVKRRTLQQVLNLIPEEGKGETFEDALARVRRCIGGGGGDDNADSDSDIEVVADFFGVNLRCPMSGSRIKVAGRFLPCVHMGCFDLDVFVELNQRSRKWQCPICLKNYSVEHVIVDPYFNRITSKMKHCDEEVTEIEVKPDGSWRVKFKRESERRELGELSQWHAPDGSLCPSAVDIKRKMEMLPVKQEGYSDGPAPLKLGIRKNRNGIWEVSKPNTNGLSSSNRQEKVGYQEKNIIPMSSSATGSGRDGDDASVNQDAIGTFDFVANGMELDSISMNVDSGYNFPDRNQSGEGGNNEVIVLSDSDDENDLVITPGPAYSGCQTDGGLTFPLNPPGIINSYNEDPHSIAGGSSGLGLFNDDDEFDTPLWSFPSETPEAPGFQLFRSDADVSGGLVGLHHHSPLNCSPEINGGYTMAPETSMASVPVVPGSTGRSEANDGLVDNPLAFGRDDPSLQIFLPTKPDASAQSGFKNQADMSNGLRSEDWISLRLGDSASGNHGDPATTNGINSSHQMSTREGSMDTTTETASLLLGMNDSRQDKAKKQRSDNPFSFPRQKRSNNEQDHQTRHRSLNKICIILCAGKN |  | binds | binds weakly

Results are given in words; binding and its absence hold for the method and conditions named. Binding can be weak; no strength is given. For part of these data: Binding seen in cells or lysates may run through a third protein. For part of these data: Sequences can lack the tags named with a protein.
